In patent US12486302B2, “Somatostatin receptor antagonist compounds and methods of using the same” (CDRD VENTURES INC., priority 2016, dated 2025):
Some of these results come from one statement about several compounds together. *1 amine or outer side, *2 acyl side, *3 side chain or, on linkers, in order; H or OH if unused. Where a SMILES comes first, the peptide text is derived from it. Bridges are numbered along the chain shown (N, C = ends). Side-chain parts run from the residue outwards. [ ]: non-standard residue; d: D form. The star is where a group is joined. ξ: configuration not given here. dPhe(4-CONH2) = NC(=O)c1ccc(C[C@@H](N)C(=O)O)cc1; dPhe(4-NH2) = Nc1ccc(C[C@@H](N)C(=O)O)cc1; Phe(4-Cl) = N[C@@H](Cc1ccc(Cl)cc1)C(=O)O; NH(4-MeO-phenyl) = COc1ccc(N*)cc1; dCit = NC(=O)NCCC[C@@H](N)C(=O)O; Cit = NC(=O)NCCC[C@H](N)C(=O)O; Lys(Me) = CNCCCC[C@H](N)C(=O)O; Nicotinoyl = O=C(c1cccnc1)*; ξY = NC(Cc1ccc(O)cc1)C(=O)O; CO = O=C([*:1])[*:2]; Bz = O=C(c1ccccc1)*; NHPh = c1ccc(N*)cc1

Sequences of proteins named here, by UniProt entry; tags and fusion partners are left off. A change or cut given only in a name is not applied to a line headed by its entry.
UniProt P30874: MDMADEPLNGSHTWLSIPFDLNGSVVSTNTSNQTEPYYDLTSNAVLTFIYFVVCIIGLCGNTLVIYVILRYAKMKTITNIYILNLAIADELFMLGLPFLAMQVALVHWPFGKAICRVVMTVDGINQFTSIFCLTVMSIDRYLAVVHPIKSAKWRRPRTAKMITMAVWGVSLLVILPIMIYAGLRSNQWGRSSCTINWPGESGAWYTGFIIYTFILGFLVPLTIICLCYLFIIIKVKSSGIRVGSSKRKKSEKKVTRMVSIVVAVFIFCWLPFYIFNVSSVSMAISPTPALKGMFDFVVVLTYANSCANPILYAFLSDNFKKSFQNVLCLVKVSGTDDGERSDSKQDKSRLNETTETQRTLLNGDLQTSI

Target: somatostatin type 2 (SSTR2) receptors (Homo sapiens, UniProt P30874)
Test: PathHunter β-Arrestin assay, antagonist mode, SSTR2
Format: cell-based
Procedure: The PathHunter® β-Arrestin assay monitors the activation of a GPCR in a homogenous, non-imaging assay format using a technology developed by DiscoveRx called Enzyme Fragment Complementation (EFC) with β-galactosidase (β-Gal) as the functional reporter. […] EA is fused to β-Arrestin and […] is fused to the GPCR of interest. When the GPCR is activated and β-Arrestin is recruited to the receptor, ED and EA complementation occurs, restoring β-Gal activity which is measured using chemiluminescent PathHunter® Detection Reagents. For antagonist determination, cells were pre-incubated with the compounds followed by agonist challenge at the EC80 concentration. Data was normalized to the maximal and minimal response observed in the presence of EC80 ligand and vehicle. Compound activity was analyzed using CBIS data analysis suite ChemInnovation, CA). Percentage inhibition was calculated using the following formula: % Inhibition=100%×(1−(mean signal of test sample-mean signal of vehicle control)/(mean signal of EC80 control-mean signal of vehicle control)). Percentage inhibition was calculated at 10 concentrations in steps on a Log 3 scale ranging from […] to 5e-5 μM. The results were plotted for IC50 calculation.

SMILES | antagonistic activity with respect to SSTR2
C[C@@H](O)[C@@H]1NC(=O)[C@H](CCCCN)NC(=O)[C@@H](Cc2ccc(NC(=O)[C@@H](N)CO)cc2)NC(=O)[C@H](Cc2ccc(O)cc2)NC(=O)[C@H](NC(=O)[C@@H](N)Cc2ccc(Cl)cc2)CSSC[C@@H](C(=O)N[C@H](Cc2ccc(O)cc2)C(N)=O)NC1=O [Compound 16, H-Cpa-cyclo[DCys- Tyr-D-4-(Ser) Aph-Lys-Thr- Cys]-DTyr-NH2] (H-[Phe(4-Cl)][dC]Y[dPhe(4-NH2)](Ser)KTC[dY]-NH2; disulfide 2-7) | exhibited antagonistic activity
C[C@@H](O)[C@@H]1NC(=O)[C@H](CCCCN)NC(=O)[C@@H](Cc2ccc(NC(=O)[C@@H](N)CCCCN)cc2)NC(=O)[C@H](Cc2ccc(O)cc2)NC(=O)[C@H](NC(=O)[C@@H](N)Cc2ccc(Cl)cc2)CSSC[C@@H](C(=O)N[C@H](Cc2ccc(O)cc2)C(N)=O)NC1=O [Compound 17, H-Cpa-cyclo[DCys- Tyr-D-4-(Lys) Aph-Lys-Thr- Cys]-DTyr-NH2] (H-[Phe(4-Cl)][dC]Y[dPhe(4-NH2)](Lys)KTC[dY]-NH2; disulfide 2-7) | exhibited antagonistic activity
C[C@@H](O)[C@@H]1NC(=O)[C@H](CCCCN)NC(=O)[C@@H](Cc2ccc(NC(=O)[C@@H](N)CC(=O)O)cc2)NC(=O)[C@H](Cc2ccc(O)cc2)NC(=O)[C@H](NC(=O)[C@@H](N)Cc2ccc(Cl)cc2)CSSC[C@@H](C(=O)N[C@H](Cc2ccc(O)cc2)C(N)=O)NC1=O [Compound 18, H-Cpa-cyclo[DCys- Tyr-D-4-(Asp) Aph-Lys-Thr- Cys]-DTyr-NH2] (H-[Phe(4-Cl)][dC]Y[dPhe(4-NH2)](Asp)KTC[dY]-NH2; disulfide 2-7) | exhibited antagonistic activity
C[C@@H](O)[C@@H]1NC(=O)[C@H](CCCCN)NC(=O)[C@@H](Cc2ccc(NC(=O)[C@@H](N)CC(N)=O)cc2)NC(=O)[C@H](Cc2ccc(O)cc2)NC(=O)[C@H](NC(=O)[C@@H](N)Cc2ccc(Cl)cc2)CSSC[C@@H](C(=O)N[C@H](Cc2ccc(O)cc2)C(N)=O)NC1=O [Compound 19, H-Cpa-cyclo[DCys- Tyr-D-4-(Asn) Aph-Lys-Thr- Cys]-DTyr-NH2] (H-[Phe(4-Cl)][dC]Y[dPhe(4-NH2)](Asn)KTC[dY]-NH2; disulfide 2-7) | exhibited antagonistic activity
C[C@@H](O)[C@@H]1NC(=O)[C@H](CCCCN)NC(=O)[C@@H](Cc2ccc(NC(=O)[C@@H](N)CCC(=O)O)cc2)NC(=O)[C@H](Cc2ccc(O)cc2)NC(=O)[C@H](NC(=O)[C@@H](N)Cc2ccc(Cl)cc2)CSSC[C@@H](C(=O)N[C@H](Cc2ccc(O)cc2)C(N)=O)NC1=O [Compound 20, H-Cpa-cyclo[DCys- Tyr-D-4-(Glu)Aph- Lys-Thr-Cys]- DTyr-NH2] (H-[Phe(4-Cl)][dC]Y[dPhe(4-NH2)](Glu)KTC[dY]-NH2; disulfide 2-7) | exhibited antagonistic activity
C[C@@H](O)[C@@H]1NC(=O)[C@H](CCCCN)NC(=O)[C@@H](Cc2ccc(NC(=O)[C@@H](N)CCC(N)=O)cc2)NC(=O)[C@H](Cc2ccc(O)cc2)NC(=O)[C@H](NC(=O)[C@@H](N)Cc2ccc(Cl)cc2)CSSC[C@@H](C(=O)N[C@H](Cc2ccc(O)cc2)C(N)=O)NC1=O [Compound 21, H-Cpa-cyclo[DCys- Tyr-D-4-(Gln)Aph- Lys-Thr-Cys]- DTyr-NH2] (H-[Phe(4-Cl)][dC]Y[dPhe(4-NH2)](Gln)KTC[dY]-NH2; disulfide 2-7) | exhibited antagonistic activity
C[C@@H](O)[C@@H]1NC(=O)[C@H](CCCCN)NC(=O)[C@@H](Cc2ccc(NC(=O)[C@@H](N)CCCNC(N)=O)cc2)NC(=O)[C@H](Cc2ccc(O)cc2)NC(=O)[C@H](NC(=O)[C@@H](N)Cc2ccc(Cl)cc2)CSSC[C@@H](C(=O)N[C@H](Cc2ccc(O)cc2)C(N)=O)NC1=O [Compound 22, H-Cpa-cyclo[DCys- Tyr-D-4-(Cit)Aph- Lys-Thr-Cys]- DTyr-NH2] (H-[Phe(4-Cl)][dC]Y[dPhe(4-NH2)](Cit)KTC[dY]-NH2; disulfide 2-7) | exhibited antagonistic activity
CC(C)[C@H](N)C(=O)Nc1ccc(C[C@H]2NC(=O)[C@H](Cc3ccc(O)cc3)NC(=O)[C@H](NC(=O)[C@@H](N)Cc3ccc(Cl)cc3)CSSC[C@@H](C(=O)N[C@H](Cc3ccc(O)cc3)C(N)=O)NC(=O)[C@H]([C@@H](C)O)NC(=O)[C@H](CCCCN)NC2=O)cc1 [Compound 23, H-Cpa-cyclo[DCys- Tyr-D-4-(Val)Aph- Lys-Thr-Cys]- DTyr-NH2] (H-[Phe(4-Cl)][dC]Y[dPhe(4-NH2)](Val)KTC[dY]-NH2; disulfide 2-7) | exhibited antagonistic activity
CNCCCC[C@@H]1NC(=O)[C@@H](Cc2ccc(C(N)=O)cc2)NC(=O)[C@H](Cc2ccc(O)cc2)NC(=O)[C@H](NC(=O)[C@@H](N)Cc2ccc(Cl)cc2)CSSC[C@@H](C(=O)N[C@H](Cc2ccc(O)cc2)C(N)=O)NC(=O)[C@H]([C@@H](C)O)NC1=O [Compound 24, H-Cpa-cyclo[D-Cys-Tyr-D-Phe(4-carbamoyl)-Lys(N^ε-Me)-Thr-Cys]-D-Tyr-NH2] (H-[Phe(4-Cl)][dC]Y[dPhe(4-CONH2)][Lys(Me)]TC[dY]-NH2; disulfide 2-7) | exhibited antagonistic activity
CNCCCC[C@@H]1NC(=O)[C@@H](Cc2ccc(NC(=O)Nc3ccccc3)cc2)NC(=O)[C@H](Cc2ccc(O)cc2)NC(=O)[C@H](NC(=O)[C@@H](N)Cc2ccc(Cl)cc2)CSSC[C@@H](C(=O)NC(Cc2ccc(O)cc2)C(N)=O)NC(=O)[C@H]([C@@H](C)O)NC1=O (stereo partly drawn) [Compound 25, H-Cpa-cyclo[D-Cys-Tyr-D-Phe(4-phenylureido)-Lys(N^ε-Me)-Thr-Cys]-D-Tyr-NH2] (H-[Phe(4-Cl)][dC]Y[dPhe(4-NH2)]([CO-NHPh])[Lys(Me)]TC[ξY]-NH2; disulfide 2-7) | exhibited antagonistic activity
CC(=O)NCCCC[C@@H]1NC(=O)[C@@H](Cc2ccc(C(N)=O)cc2)NC(=O)[C@H](Cc2ccc(O)cc2)NC(=O)[C@H](NC(=O)[C@@H](N)Cc2ccc(Cl)cc2)CSSC[C@@H](C(=O)NC(Cc2ccc(O)cc2)C(N)=O)NC(=O)[C@H]([C@@H](C)O)NC1=O (stereo partly drawn) [Compound 26, H-Cpa-cyclo[DCys- Tyr-D-(4- carbamoyl)Phe-(N- Acetyl)Lys-Thr-Cys]- DTyr-NH2] (H-[Phe(4-Cl)][dC]Y[dPhe(4-CONH2)]K(Ac)TC[ξY]-NH2; disulfide 2-7) | exhibited antagonistic activity
C[C@@H](O)[C@@H]1NC(=O)[C@H](CCCCN)NC(=O)[C@@H](Cc2ccc(NC(=O)c3ccccc3)cc2)NC(=O)[C@H](Cc2ccc(O)cc2)NC(=O)[C@H](NC(=O)[C@@H](N)Cc2ccc(Cl)cc2)CSSC[C@@H](C(=O)NC(Cc2ccc(O)cc2)C(N)=O)NC1=O (stereo partly drawn) [Compound 27, H-Cpa-cyclo[DCys- Tyr-D-(4- Benzamidophenyl) Phe-Lys-Thr- Cys]-DTyr-NH2] (H-[Phe(4-Cl)][dC]Y[dPhe(4-NH2)](Bz)KTC[ξY]-NH2; disulfide 2-7) | exhibited antagonistic activity
COc1ccc(NC(=O)Nc2ccc(C[C@H]3NC(=O)[C@H](Cc4ccc(O)cc4)NC(=O)[C@H](NC(=O)[C@@H](N)Cc4ccc(Cl)cc4)CSSC[C@@H](C(=O)N[C@H](Cc4ccc(O)cc4)C(N)=O)NC(=O)[C@H]([C@@H](C)O)NC(=O)[C@H](CCCCN)NC3=O)cc2)cc1 [Compound 28, H-Cpa-cyclo[DCys- Tyr-D-(4-(4- methoxyphenyl) ureido) Phe-Lys-Thr-Cys]- DTyr-NH2] (H-[Phe(4-Cl)][dC]Y[dPhe(4-NH2)]([CO-NH(4-MeO-phenyl)])KTC[dY]-NH2; disulfide 2-7) | exhibited antagonistic activity
C[C@@H](O)[C@@H]1NC(=O)[C@H](CCCNC(=N)N)NC(=O)[C@@H](Cc2ccc(C(N)=O)cc2)NC(=O)[C@H](Cc2ccc(O)cc2)NC(=O)[C@H](NC(=O)[C@@H](N)Cc2ccc(Cl)cc2)CSSC[C@@H](C(=O)NC(Cc2ccc(O)cc2)C(N)=O)NC1=O (stereo partly drawn) [Compound 29, H-Cpa-cyclo[DCys- Tyr-D-(4- carbamoyl)Phe-Arg- Thr-Cys]-DTyr-NH2] (H-[Phe(4-Cl)][dC]Y[dPhe(4-CONH2)]RTC[ξY]-NH2; disulfide 2-7) | exhibited antagonistic activity
CNCCCC[C@@H]1NC(=O)[C@@H](CCCCNC(=O)c2cccnc2)NC(=O)[C@H](Cc2ccc(O)cc2)NC(=O)[C@H](NC(=O)[C@@H](N)Cc2ccc(Cl)cc2)CSSC[C@@H](C(=O)NC(Cc2ccc(O)cc2)C(N)=O)NC(=O)[C@H]([C@@H](C)O)NC1=O (stereo partly drawn) [Compound 30, H-Cpa-cyclo[D-Cys-Tyr-D-Lys(N^ε-nicotinoyl)-Lys(N^ε-Me)-Thr-Cys]-D-Tyr-NH2] (H-[Phe(4-Cl)][dC]Y[dK](Nicotinoyl)[Lys(Me)]TC[ξY]-NH2; disulfide 2-7) | exhibited antagonistic activity
CNCCCC[C@@H]1NC(=O)[C@@H](CCCNC(N)=O)NC(=O)[C@H](Cc2ccc(O)cc2)NC(=O)[C@H](NC(=O)[C@@H](N)Cc2ccc(Cl)cc2)CSSC[C@@H](C(=O)N[C@H](Cc2ccc(O)cc2)C(N)=O)NC(=O)[C@H]([C@@H](C)O)NC1=O [Compound 31, H-Cpa-cyclo[DCys- Tyr-D-Cit- (N—Me)Lys-Thr- Cys]-DTyr-NH2] (H-[Phe(4-Cl)][dC]Y[dCit][Lys(Me)]TC[dY]-NH2; disulfide 2-7) | exhibited antagonistic activity
